This experiment deals with T1, GST-Rab27a-Q78L (UniProt P23640 1-221, Q78L).
T1 construct: Rab27a; rat Rab27a is stated only for the BiFC constructs; also called GTP-locked Rab27a-Q78L; active Rab27a-Q78L; source: E. coli Rosetta, purified (GSH-Sepharose 4B, size-exclusion chromatography)
T1 sequence (looked up): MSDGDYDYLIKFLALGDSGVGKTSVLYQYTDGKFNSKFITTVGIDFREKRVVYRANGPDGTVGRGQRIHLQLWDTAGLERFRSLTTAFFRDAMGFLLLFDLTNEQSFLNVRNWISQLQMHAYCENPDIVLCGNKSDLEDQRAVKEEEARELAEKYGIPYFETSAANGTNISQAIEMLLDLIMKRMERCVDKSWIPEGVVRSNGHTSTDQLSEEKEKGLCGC
In words: pull-down; 50 µg GST-Rab27a (Q78L or T23N) coupled to GSH-Sepharose 4B beads, incubated with HEK293 cell lysates 2 h at 4 °C; 25 mM Tris-HCl pH 7.4, 150 mM NaCl, 5 mM MgCl2, 10% glycerol, 0.1% Nonidet P-40; bound proteins analysed by immunoblotting (anti-c-Myc, anti-GFP); only the target purified.

The chains behind the UniProt entries cited, without tags or fusion partners. Where a name states a change or a piece, a line headed by the entry shows the natural chain unless it says otherwise. A line that says so, or that is headed by a name, gives the form on record, which may keep a tag or linker.
Myc-epitope-tagged SPIRE1 (Q08AE8-2, form named): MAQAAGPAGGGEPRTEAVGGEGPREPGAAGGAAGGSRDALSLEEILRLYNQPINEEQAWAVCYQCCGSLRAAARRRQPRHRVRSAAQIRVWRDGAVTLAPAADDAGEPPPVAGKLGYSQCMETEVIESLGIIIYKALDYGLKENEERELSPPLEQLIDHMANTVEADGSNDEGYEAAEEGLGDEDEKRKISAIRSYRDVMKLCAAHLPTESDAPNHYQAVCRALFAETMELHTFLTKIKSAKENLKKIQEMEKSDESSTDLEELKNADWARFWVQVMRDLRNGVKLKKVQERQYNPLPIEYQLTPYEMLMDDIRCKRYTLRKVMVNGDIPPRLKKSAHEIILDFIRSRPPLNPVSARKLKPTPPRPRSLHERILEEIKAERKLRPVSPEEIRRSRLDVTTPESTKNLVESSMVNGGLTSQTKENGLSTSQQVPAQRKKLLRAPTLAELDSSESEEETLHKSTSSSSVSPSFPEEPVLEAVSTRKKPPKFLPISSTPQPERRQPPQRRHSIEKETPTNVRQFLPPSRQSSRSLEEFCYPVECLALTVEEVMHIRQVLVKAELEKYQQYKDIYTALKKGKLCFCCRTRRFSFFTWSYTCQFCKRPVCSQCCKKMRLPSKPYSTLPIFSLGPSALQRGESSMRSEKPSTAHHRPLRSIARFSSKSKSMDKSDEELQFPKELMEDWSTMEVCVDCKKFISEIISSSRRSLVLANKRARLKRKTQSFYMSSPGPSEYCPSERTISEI

No constants are given. Whether binding was seen depends on the method and setting. In cells and extracts the contact can be indirect. Some binding calls cover weakened binding; strength is not graded here. Where a sequence is shown, tags or fusion partners need not be part of it.

Take “Myc-epitope-tagged SPIRE1 (from UniProt Q08AE8-2 1-742)”: the binding entry is reported as “binds”.

B1: vYNE-SPIRE2 (natural protein, human, UniProt Q8WWL2 1-714, looked up)
chain: MARAGSCGGAAAGAGRPEPWELSLEEVLKAYEQPLNEEQAWAVCFQGCRGLRGSPGRRLRDTGDLLLRGDGSVGAREPEAAEPATMVVPLASSEAQTVQSLGFAIYRALDWGLDESEERELSPQLERLIDLMANNDSEDSGCGAADEGYGGPEEEEEAEGVPRSVRTFAQAMRLCAARLTDPRGAQAHYQAVCRALFVETLELRAFLARVREAKEMLQKLREDEPHLETPRAELDSLGHTDWARLWVQLMRELRRGVKLKKVQEQEFNPLPTEFQLTPFEMLMQDIRARNYKLRKVMVDGDIPPRVKKDAHELILDFIRSRPPLKQVSERRLRPLPPKQRSLHEKILEEIKQERRLRPVRGEGWAARGFGSLPCILNACSGDAKSTSCINLSVTDAGGSAQRPRPRVLLKAPTLAEMEEMNTSEEEESPCGEVTLKRDRSFSEHDLAQLRSEVASGLQSATHPPGGTEPPRPRAGSAHVWRPGSRDQGTCPASVSDPSHPLLSNRGSSGDRPEASMTPDAKHLWLEFSHPVESLALTVEEVMDVRRVLVKAEMEKFLQNKELFSSLKKGKICCCCRAKFPLFSWPPSCLFCKRAVCTSCSIKMKMPSKKFGHIPVYTLGFESPQRVSAAKTAPIQRRDIFQSLQGPQWQSVEEAFPHIYSHGCVLKDVCSECTSFVADVVRSSRKSVDVLNTTPRRSRQTQSLYIPNTRTLDFK
notes: human SPIRE2, cDNA AJ422077; also called SPIRE2 (BiFC); source: HEK293a, transfected, in living cells; not shown: enhanced Venus YFP N-terminus fragment (amino acids 1-173)
With B1, the binding entry is “binds”.

Source of the values: paper PMC7359353, “Rab27a co-ordinates actin-dependent transport by controlling organelle-associated motors and track assembly proteins” (Nature Communications, 2020).
